PubChem BioAssay AID1259424 – University of Nebraska Medical Center, 2018

Screen: 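Find knockdowns that reproduce the expression shifts seen after KSR1 loss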 (primary screen)
Cells: human HCT116 colon cancer cells
Reagent: siRNA pool against human genes, 50 nM
Detection: 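Log2 levels of six mRNAs (branched-DNA multiplex), adjusted by two reference genes and the non-targeting median, then scored against the average KSR1 knockdown pattern as Pearson r and euclidean distance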
Scale: mean correlation with KSR1 profile: higher = expression change more like KSR1 knockdown; mean distance from KSR1 profile: higher = expression change less like KSR1 knockdown
In all, the deposit lists about 14,000 reagents; this is a part drawn at random. 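Higher correlation or smaller distance means closer resemblance to KSR1 loss; control wells, including KSR1 knockdowns, recur on many plates.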 Further read-outs or replicates are left out here. The record does not give: the time to read-out.

gene knocked down | mean correlation with KSR1 profile | mean distance from KSR1 profile
PSAT1 (phosphoserine aminotransferase 1) | -0.502 | 1.91
C5orf22 (chromosome 5 open reading frame 22) | -0.442 | 3.15
EIF1AD | 0.0701 | 1.89
PCDHB13 (protocadherin beta 13) | 0.464 | 3.64
PRSS2 (serine protease 2) | 0.339 | 1.43
PDRG1 (p53 and DNA damage regulated 1) | 0.042 | 2.58
SFPQ (splicing factor proline and glutamine rich) | 0.22 | 2.53
CBLIF (cobalamin binding intrinsic factor) | -0.315 | 1.77
PARD6G (par-6 family cell polarity regulator gamma) | 0.749 | 2.99
ZBTB21 (zinc finger and BTB domain containing 21) | -0.174 | 1.95
PRRX1 (paired related homeobox 1) | -0.301 | 1.55
RPL17 (ribosomal protein L17) | 0.639 | 1.68
CASS4 (Cas scaffold protein family member 4) | 0.164 | 2.12
SHANK3 (SH3 and multiple ankyrin repeat domains 3) | 0.138 | 1.76
PSCA (prostate stem cell antigen) | 0.399 | 3.45
A1BG (alpha-1-B glycoprotein) | -0.57 | 2.21
DEFA1 (defensin alpha 1) | 0.195 | 1.97
MNAT1 (MNAT1 component of CDK activating kinase) | -0.269 | 2.46
SCGB3A2 (secretoglobin family 3A member 2) | -0.131 | 1.31
PLCE1 (phospholipase C epsilon 1) | -0.603 | 2.15
ARMC6 (armadillo repeat containing 6) | 0.347 | 1.73
ZDHHC12 (zDHHC palmitoyltransferase 12) | 0.535 | 1.43
DIPK2B (divergent protein kinase domain 2B) | 0.857 | 1.33
GRIA3 (glutamate ionotropic receptor AMPA type subunit 3) | -0.546 | 1.71
WFDC2 (WAP four-disulfide core domain 2) | -0.223 | 2.19
ABCA3 (ATP binding cassette subfamily A member 3) | -0.2 | 4.19
SPG11 (SPG11 vesicle trafficking associated, spatacsin) | -0.0539 | 2.13
RPS25 (ribosomal protein S25) | 0.0128 | 2.77
RPS16 (ribosomal protein S16) | -0.222 | 2.24
KLK12 (kallikrein related peptidase 12) | -0.376 | 1.34

3 of these entries, reformatted:
| gene knocked down | mean correlation with KSR1 profile | mean distance from KSR1 profile |
| --- | --- | --- |
| C5orf22 (chromosome 5 open reading frame 22) | -0.442 | 3.15 |
| EIF1AD | 0.0701 | 1.89 |
| PCDHB13 (protocadherin beta 13) | 0.464 | 3.64 |

The list goes on.
gene knocked down | mean correlation with KSR1 profile | mean distance from KSR1 profile
TEX13B (testis expressed 13B) | -0.685 | 2.75
KRTAP5-9 (keratin associated protein 5-9) | 0.072 | 2.3
COPZ1 (coat protein complex I subunit zeta 1) | -0.65 | 5.28
RHEB (Ras homolog, mTORC1 binding) | -0.74 | 5.28
VPS54 (VPS54 subunit of GARP complex) | -0.355 | 3.3
MRPL57 (mitochondrial ribosomal protein L57) | 0.0495 | 1.33
DNAJC27 (DnaJ heat shock protein family (Hsp40) member C27) | 0.649 | 2.43
DPCD (deleted in primary ciliary dyskinesia homolog (mouse)) | 0.00926 | 2.15
SMIM11 (small integral membrane protein 11) | 0.678 | 1.07
IGFBP3 (insulin like growth factor binding protein 3) | -0.176 | 2.29
BRD9 (bromodomain containing 9) | 0.673 | 0.886
H3-3B (H3.3 histone B) | 0.773 | 0.919
METTL26 (methyltransferase like 26) | 0.416 | 2.34
PLPP2 (phospholipid phosphatase 2) | 0.224 | 2.83
PMCHL1 (pro-melanin concentrating hormone like 1 (pseudogene)) | -0.254 | 1.62
LGALS3BP (galectin 3 binding protein) | 0.739 | 1.38
B4GALT5 (beta-1,4-galactosyltransferase 5) | -0.488 | 3.05
HMOX2 (heme oxygenase 2) | 0.498 | 2.4
PDE2A (phosphodiesterase 2A) | 0.182 | 1.55
TRPA1 | -0.652 | 2.24
